From the supplement of paper PMC7661543
± gives the standard deviation of the averaged measurements. Differences between knockout arms are mostly noise.

System: ZR-75-1
Assay: relative cell number vs DMSO control (72 h) (% of DMSO); higher = less growth inhibition (more cells)
Description: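 QMAP-Seq: a pool of 5 breast cancer cell lines (ZR-75-1, SKBR3, HCC-38, MDA-MB-231, BT-20), each carrying 12 doxycycline-inducible Cas9 sgRNA perturbations (11 knockouts plus non-targeting sgNT), was treated with compounds for 72 h at four 10-fold doses (10 nM-10 uM or 1 nM-1 uM range). Barcodes were amplified and sequenced, and cell number was interpolated from 293T spike-in standard curves. The result is expressed as % of the median of DMSO wells. Two biological replicates.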

[1] = sgRNA knockout: sgATF3, 1000 nM
[2] = sgRNA knockout: sgATF3, 10000 nM
[3] = sgRNA knockout: sgATF4, 1000 nM
[4] = sgRNA knockout: sgATF4, 10000 nM
[5] = sgRNA knockout: sgATF6, 1000 nM
[6] = sgRNA knockout: sgATF6, 10000 nM
[7] = sgRNA knockout: sgATG7, 1000 nM
[8] = sgRNA knockout: sgATG7, 10000 nM
[9] = sgRNA knockout: sgERN1, 1000 nM
[10] = sgRNA knockout: sgERN1, 10000 nM
[11] = sgRNA knockout: sgHSF2, 1000 nM
[12] = sgRNA knockout: sgHSF2, 10000 nM
[13] = sgRNA knockout: sgNFE2L2, 10 nM
[14] = sgRNA knockout: sgNFE2L2, 100 nM
[15] = sgRNA knockout: sgNFE2L2, 1000 nM
[16] = sgRNA knockout: sgNFE2L2, 10000 nM
[17] = sgRNA knockout: sgSLC35F2, 10 nM
[18] = sgRNA knockout: sgSLC35F2, 100 nM
[19] = sgRNA knockout: sgSLC35F2, 1000 nM
[20] = sgRNA knockout: sgSLC35F2, 10000 nM
[21] = sgRNA knockout: sgXBP1, 1000 nM
[22] = sgRNA knockout: sgXBP1, 10000 nM

Row | SMILES | relative cell number (sgRNA knockout: sgATF3, 10 nM) | relative cell number (sgRNA knockout: sgATF3, 100 nM) | relative cell number [1] | relative cell number (sgRNA knockout: sgATF4, 10 nM) | relative cell number (sgRNA knockout: sgATF4, 100 nM) | relative cell number [3] | relative cell number (sgRNA knockout: sgATF6, 10 nM) | relative cell number (sgRNA knockout: sgATF6, 100 nM) | relative cell number [5] | relative cell number (sgRNA knockout: sgATG7, 10 nM) | relative cell number (sgRNA knockout: sgATG7, 100 nM) | relative cell number [7] | relative cell number (sgRNA knockout: sgERN1, 10 nM) | relative cell number (sgRNA knockout: sgERN1, 100 nM) | relative cell number [9] | relative cell number (sgRNA knockout: sgHSF2, 10 nM) | relative cell number (sgRNA knockout: sgHSF2, 100 nM) | relative cell number [11] | relative cell number [13] | relative cell number [14] | further results
1 | Cc1ccc(C(=O)Cn2c3c(sc2=N)CCCC3)cc1 [PifithrinAlpha] | 107 ± 36 | 66.9 ± 11 | 86.7 ± 10 | 98.3 ± 21 | 111 ± 4 | 112 ± 12 | 94.7 ± 49 | 86.2 ± 6.6 | 99.1 ± 44 | 114 ± 24 | 88.6 ± 8.2 | 80.8 ± 9.6 | 110 ± 9.3 | 103 ± 6.3 | 99.8 ± 21 | 84.6 ± 14 | 105 ± 4.8 | 74.9 ± 10 | 95 ± 2.5 | 96 ± 1.2 | relative cell number [2]: 45.2 ± 11; relative cell number [4]: 55.8 ± 20; relative cell number [6]: 45.4 ± 22; relative cell number [8]: 59.6 ± 1.1; relative cell number [10]: 51.8 ± 8.6; relative cell number [12]: 47.33 ± 0.46; relative cell number [15]: 88.4 ± 4.7; relative cell number [16]: 49.7 ± 15; relative cell number [17]: 82.6 ± 3.3; relative cell number [18]: 72.4 ± 56; relative cell number [19]: 81.4 ± 20; relative cell number [20]: 34.1 ± 28; relative cell number (sgRNA knockout: sgXBP1, 10 nM): 84.88 ± 0.15; relative cell number (sgRNA knockout: sgXBP1, 100 nM): 108 ± 4.1; relative cell number [21]: 81.5 ± 22; relative cell number [22]: 49.4 ± 5.9
2 | CCc1c2c(nc3ccc(O)cc13)-c1cc3c(c(=O)n1C2)COC(=O)[C@]3(O)CC [SN38] | 44.3 ± 11 | 23.5 ± 0.99 | 30.2 ± 7.7 | 70.3 ± 16 | 24.6 ± 3.1 | 15.4 ± 15 | 40.8 ± 18 | 25.2 ± 14 | 29.9 ± 2.1 | 50.6 ± 5.3 | 30.6 ± 4 | 24.1 ± 4.2 | 57.4 ± 13 | 38.6 ± 4.6 | 41.8 ± 5.5 | 43.2 ± 7.2 | 29 ± 4.5 | 18 ± 11 | 46.7 ± 0.6 | 32.3 ± 12 | relative cell number (sgRNA knockout: sgATF3, 1 nM): 111 ± 39; relative cell number (sgRNA knockout: sgATF4, 1 nM): 77.3 ± 35; relative cell number (sgRNA knockout: sgATF6, 1 nM): 82.1 ± 5.9; relative cell number (sgRNA knockout: sgATG7, 1 nM): 82.6 ± 1.4; relative cell number (sgRNA knockout: sgERN1, 1 nM): 80.5 ± 20; relative cell number (sgRNA knockout: sgHSF2, 1 nM): 104 ± 8.1; relative cell number (sgRNA knockout: sgNFE2L2, 1 nM): 78.8 ± 9.7; relative cell number [15]: 27.5 ± 6.9; relative cell number (sgRNA knockout: sgSLC35F2, 1 nM): 58.7 ± 8.5; relative cell number [17]: 60.6 ± 15; relative cell number [18]: 29.682 ± 0.018; relative cell number [19]: 26.3 ± 10; relative cell number (sgRNA knockout: sgXBP1, 1 nM): 104 ± 15; relative cell number (sgRNA knockout: sgXBP1, 10 nM): 43.5 ± 8.6; relative cell number (sgRNA knockout: sgXBP1, 100 nM): 30.4 ± 2.3; relative cell number [21]: 28.3 ± 1.4
3 | COc1nc(N)nc2c1ncn2[C@@H]1O[C@H](CO)[C@@H](O)[C@@H]1O [Nelarabine] | 136.1 ± 0.75 | 84 ± 50 | 106 ± 30 | 127 ± 3.2 | 101 ± 15 | 97.2 ± 26 | 72.8 ± 22 | 111 ± 39 | 82.9 ± 13 | 85.8 ± 17 | 99.5 ± 10 | 101 ± 3.5 | 108 ± 17 | 105 ± 4.1 | 93.5 ± 17 | 115 ± 6.9 | 105 ± 14 | 102 ± 28 | 97.5 ± 6.4 | 126 ± 3.8 | relative cell number [2]: 84.2 ± 6.1; relative cell number [4]: 99.4 ± 18; relative cell number [6]: 91 ± 29; relative cell number [8]: 104 ± 9.8; relative cell number [10]: 73.6 ± 17; relative cell number [12]: 92.7 ± 13; relative cell number [15]: 102 ± 30; relative cell number [16]: 132 ± 37; relative cell number [17]: 139 ± 2.5; relative cell number [18]: 66.5 ± 7; relative cell number [19]: 147 ± 27; relative cell number [20]: 96.5 ± 64; relative cell number (sgRNA knockout: sgXBP1, 10 nM): 117 ± 1.9; relative cell number (sgRNA knockout: sgXBP1, 100 nM): 116 ± 7.6; relative cell number [21]: 92.8 ± 12; relative cell number [22]: 127 ± 58
4 | CC(C)n1cnc2c(NCCc3ccc(O)cc3)nc(-c3csc4ccccc34)nc21 [StemRegenin1] | 91.7 ± 1.2 | 164 ± 26 | 128 ± 55 | 93.8 ± 14 | 167 ± 60 | 89.7 ± 4.3 | 82.3 ± 32 | 119 ± 31 | 88.9 ± 38 | 97.9 ± 17 | 117 ± 4.5 | 94.2 ± 2.6 | 89.9 ± 8.3 | 131 ± 9.7 | 95.2 ± 23 | 94.6 ± 14 | 127 ± 11 | 128 ± 15 | 101 ± 30 | 139 ± 11 | relative cell number [2]: 38.2 ± 7.5; relative cell number [4]: 38.8 ± 4.9; relative cell number [6]: 60.9 ± 9.4; relative cell number [8]: 50.3 ± 1.3; relative cell number [10]: 52.7 ± 9.5; relative cell number [12]: 55.27 ± 0.22; relative cell number [15]: 79.9 ± 2.7; relative cell number [16]: 38.8 ± 2.9; relative cell number [17]: 125 ± 53; relative cell number [18]: 114 ± 44; relative cell number [19]: 120 ± 110; relative cell number [20]: 34 ± 6.2; relative cell number (sgRNA knockout: sgXBP1, 10 nM): 90 ± 6.7; relative cell number (sgRNA knockout: sgXBP1, 100 nM): 122 ± 8.1; relative cell number [21]: 109 ± 2; relative cell number [22]: 39.4 ± 7
5 | Cc1[nH]c(/C=C2\C(=O)Nc3ccc(S(=O)(=O)N(C)c4cccc(Cl)c4)cc32)c(C)c1C(=O)N1CCN(C)CC1 | 114 ± 13 | 74.7 ± 14 | 85.5 ± 19 | 93.1 ± 22 | 86.1 ± 48 | 73.1 ± 6 | 101 ± 68 | 92.9 ± 4.1 | 56.8 ± 9.3 | 93.8 ± 9.3 | 99.2 ± 55 | 71.7 ± 12 | 101 ± 3.9 | 81.2 ± 27 | 67 ± 8.7 | 101 ± 20 | 99.5 ± 21 | 74 ± 28 | 76.6 ± 34 | 92.7 ± 46 | relative cell number [2]: 41.2 ± 2.5; relative cell number [4]: 60.9 ± 18; relative cell number [6]: 42.8 ± 1.1; relative cell number [8]: 48.2 ± 28; relative cell number [10]: 39.1 ± 2.4; relative cell number [12]: 46 ± 16; relative cell number [15]: 86.5 ± 6.5; relative cell number [16]: 24.5 ± 17; relative cell number [17]: 99 ± 17; relative cell number [18]: 90.05 ± 0.19; relative cell number [19]: 103 ± 20; relative cell number [20]: 44.5 ± 31; relative cell number (sgRNA knockout: sgXBP1, 10 nM): 86.3 ± 23; relative cell number (sgRNA knockout: sgXBP1, 100 nM): 84.5 ± 21; relative cell number [21]: 73.6 ± 7.6; relative cell number [22]: 40.5 ± 15
6 | C[C@@H]1CN(CC(=O)Nc2ccc3c(c2)Cc2cccc(-c4cc(=O)cc(N5CCOCC5)o4)c2S3)C[C@H](C)O1 | 91.1 ± 4.3 | 97.5 ± 18 | 94.6 ± 3.5 | 100 ± 3.4 | 81.4 ± 34 | 102 ± 20 | 108 ± 52 | 95.6 ± 14 | 108.8 ± 0.69 | 113 ± 31 | 119 ± 7.2 | 120 ± 30 | 76.7 ± 24 | 101 ± 12 | 105 ± 15 | 107 ± 30 | 100 ± 6.5 | 103 ± 14 | 106 ± 16 | 102 ± 21 | relative cell number [2]: 48.4 ± 2.8; relative cell number [4]: 33.4 ± 11; relative cell number [6]: 32.4 ± 15; relative cell number [8]: 48.5 ± 1.9; relative cell number [10]: 48.6 ± 5.8; relative cell number [12]: 51.3 ± 13; relative cell number [15]: 99 ± 35; relative cell number [16]: 37 ± 16; relative cell number [17]: 106 ± 4.3; relative cell number [18]: 60.6 ± 19; relative cell number [19]: 111 ± 14; relative cell number [20]: 37.5 ± 3.2; relative cell number (sgRNA knockout: sgXBP1, 10 nM): 123 ± 24; relative cell number (sgRNA knockout: sgXBP1, 100 nM): 140 ± 35; relative cell number [21]: 101 ± 7.1; relative cell number [22]: 44.8 ± 11
7 | CC(C)[C@H](O)C(=O)N[C@@H](C)C(=O)N[C@@H]1C(=O)N(C)CCc2ccccc21 [Semagacestat] | 103 ± 14 | 110 ± 8.8 | 105 ± 25 | 84.8 ± 2.4 | 73.9 ± 8.2 | 54.2 ± 11 | 111 ± 7.4 | 62.3 ± 14 | 85.2 ± 5.9 | 98.7 ± 25 | 83.8 ± 1.2 | 82.1 ± 0.84 | 104 ± 7.3 | 91.7 ± 22 | 122 ± 29 | 103 ± 4.3 | 100 ± 15 | 108.4 ± 0.61 | 110.8 ± 1.1 | 64.68 ± 0.58 | relative cell number [2]: 98.6 ± 12; relative cell number [4]: 113 ± 34; relative cell number [6]: 53.2 ± 19; relative cell number [8]: 118 ± 32; relative cell number [10]: 83.1 ± 12; relative cell number [12]: 105 ± 11; relative cell number [15]: 85.6 ± 50; relative cell number [16]: 125 ± 52; relative cell number [17]: 77.8 ± 27; relative cell number [18]: 84.7 ± 29; relative cell number [19]: 67.9 ± 9.1; relative cell number [20]: 104 ± 16; relative cell number (sgRNA knockout: sgXBP1, 10 nM): 111.2 ± 1.1; relative cell number (sgRNA knockout: sgXBP1, 100 nM): 76.8 ± 10; relative cell number [21]: 111 ± 27; relative cell number [22]: 104 ± 23
